Measurements from the supplement of paper PMC10338343.
± gives the standard deviation. The list shows a part of the results. Many entries were measured with a wide error.

Tested on: EfPiwi piRISC loaded with L1MC piRNA (26 nt)
Experiment: pre-steady-state target cleavage rate (min^-1); guide: L1MC piRNA 5'p-UAACUAAAUACUAUGCAAGCUGUAGG; MIWI and MILI are mouse PIWI proteins and EfPiwi is from a freshwater sponge; tags in brackets are library labels; higher = faster piRNA-guided slicing of the target
Details: auxiliary factor: 500 nM Ephydatia muelleri Gtsf1
Protocol: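 Cleave-'n-Seq: a library of target RNAs (target site in constant flanks) at […] was incubated with 1 nM active freshwater sponge Ephydatia fluviatilis Piwi piRISC (synthetic 5'-monophosphorylated piRNA guide) with or without 500 nM EmGtsf1 at 33 °C for 1 min to 16 h. Uncleaved targets were sequenced and the pooled three trials fitted to a burst-and-steady-state model to give the pre-steady-state cleavage rate (min^-1). Sequence is the target site only. Fits with R² ≤ 0 are excluded.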

Row | Sequence | pre-steady-state target cleavage rate
1 | UCCUGGAUGUCCUUGCAUAGUAAUUACUUA | 0.00155 ± 0.0054
2 | UCCUCCUACACCUUGCAUAGUAUUUAGAAA | 0.00377 ± 0.0021
3 | UCCUGGAUCAGCUUGCAUACAAUUUACAAA | 0.000431 ± 0.0069
4 | UCCUGGAACAGCUUGCAAUGUAUUUAGUUA | 0.00454 ± 0.0035
5 | UCCUGCUACACCUUGCAUAGUAUUUAGUAA | 0.00559 ± 0.0032
6 | UCCUGGAUCAGCUUGCAUACUAUUUACUUA | 0.00362 ± 0.0032
7 | UCCUGCUACAGCUUCCAUUGUAUUUAGUUA | 0.00266 ± 0.0018
8 | UCCUGGUACAGCUUGCAUAGUUAUUUAGUUA | 0.000972 ± 0.0053
9 | UCCUGGAUCAGCUUGGAUAGUUUUUAGUUA | 0.000919 ± 0.0045
10 | UCCUGCUACAGCUUGCAUACAUUUUUCAAA | 0.000753 ± 0.0077
11 | UCCUGGAUGUGCAUGCAUAGUUUUUAGUUA | 0.000601 ± 0.0062
12 | UCCUGGAUGUCGAUGCAUACGUAUUUAGUUA | 0.000411 ± 0.0092
13 | UCCUGGAACAGCUUGCUAUCAUAAAUCAAA [g15:g23:cont:t1A] | 0.0014 ± 0.0052
14 | UCCUGCUACAGCUUGCUUAGUAUUUACAAA | 0.00143 ± 0.0028
15 | UCCUGGUACAGCUUGCAUAGUAGUUUAGUUA | 0.0074 ± 0.0029
16 | UCCUGGAUCUCGUUGCAUAGUAUUUAGAAA | 0.00227 ± 0.0036
17 | UCCUGCAACAGCUUGCAUACUAUUUAGUUA | 0.0112 ± 0.0029
18 | UCCUGGAUGUCGAAGCAUAGAAAUUAGUUA | 0.000759 ± 0.0076
19 | UCCUGCUACAGCUUCCUUAGUAUUUAGUUA | 0.00425 ± 0.0019
20 | UCCUGGUACAGCUUGCAUAGUAUAAUGUAA | 0.00129 ± 0.004
21 | UCCUGGAUGUCGAAGCAUAGUAAAAAGUUA | 0.000674 ± 0.017
22 | UCCUGGAUGUCCUAUGCAUAGUAUUUAGUUA | 0.00508 ± 0.0022
23 | UCCUGGAUGUCGAACGUAUCUGAUUUAGUUA | 0.000401 ± 0.013

Same assay, conditions: auxiliary factor: none (no Gtsf1)

Row | Sequence | pre-steady-state target cleavage rate
24 | UCCUGGAUGUCCUUGCAUAGUAAUUACUUA | < 0.0001
25 | UCCUGGAUCAGCUUGCAUACAAUUUACAAA | 0.000278 ± 0.029
26 | UCCUGGAACAGCUUGCAAUGUAUUUAGUUA | 0.000858 ± 0.01
27 | UCCUGGUACAGCUUGAAUAGUAUUUAGUUA | 0.000248 ± 0.047
28 | UCCUGCUACACCUUGCAUAGUAUUUAGUAA | 0.000507 ± 0.011
29 | UCCUGCUACAGCUUCCAUUGUAUUUAGUUA | 0.000212 ± 0.031
30 | UCCUGGUACAGCUUGCAUAGUUAUUUAGUUA | 0.0013 ± 0.0082
31 | UCCUGGAUGUGCAUGCAUAGUUUUUAGUUA | 0.000759 ± 0.013
32 | UCCUGGAACAGCUUGCUAUCAUAAAUCAAA [g15:g23:cont:t1A] | < 0.0001
33 | UCCUGGUACAGCUUGCAUAGUAGUUUAGUUA | 0.00189 ± 0.007
34 | UCCUGCAACAGCUUGCAUACUAUUUAGUUA | 0.0011 ± 0.0065
35 | UCCUGGAUGUCGAAGCAUAGAAAUUAGUUA | 0.000163 ± 0.031
36 | UCCUGCUACAGCUUCCUUAGUAUUUAGUUA | 0.000438 ± 0.013
37 | UCCUGGUACAGCUUGCAUAGUAUAAUGUAA | 0.000982 ± 0.0094
38 | UCCUGGAUGUCCUAUGCAUAGUAUUUAGUUA | 0.000951 ± 0.008
39 | UCCUGGAUGUCGAACGUAUCUGAUUUAGUUA | < 0.0001
